Results reported in PMC5919408.

By UniProt entry, the sequences of proteins in these tests, tags left out.
UniProt P38873: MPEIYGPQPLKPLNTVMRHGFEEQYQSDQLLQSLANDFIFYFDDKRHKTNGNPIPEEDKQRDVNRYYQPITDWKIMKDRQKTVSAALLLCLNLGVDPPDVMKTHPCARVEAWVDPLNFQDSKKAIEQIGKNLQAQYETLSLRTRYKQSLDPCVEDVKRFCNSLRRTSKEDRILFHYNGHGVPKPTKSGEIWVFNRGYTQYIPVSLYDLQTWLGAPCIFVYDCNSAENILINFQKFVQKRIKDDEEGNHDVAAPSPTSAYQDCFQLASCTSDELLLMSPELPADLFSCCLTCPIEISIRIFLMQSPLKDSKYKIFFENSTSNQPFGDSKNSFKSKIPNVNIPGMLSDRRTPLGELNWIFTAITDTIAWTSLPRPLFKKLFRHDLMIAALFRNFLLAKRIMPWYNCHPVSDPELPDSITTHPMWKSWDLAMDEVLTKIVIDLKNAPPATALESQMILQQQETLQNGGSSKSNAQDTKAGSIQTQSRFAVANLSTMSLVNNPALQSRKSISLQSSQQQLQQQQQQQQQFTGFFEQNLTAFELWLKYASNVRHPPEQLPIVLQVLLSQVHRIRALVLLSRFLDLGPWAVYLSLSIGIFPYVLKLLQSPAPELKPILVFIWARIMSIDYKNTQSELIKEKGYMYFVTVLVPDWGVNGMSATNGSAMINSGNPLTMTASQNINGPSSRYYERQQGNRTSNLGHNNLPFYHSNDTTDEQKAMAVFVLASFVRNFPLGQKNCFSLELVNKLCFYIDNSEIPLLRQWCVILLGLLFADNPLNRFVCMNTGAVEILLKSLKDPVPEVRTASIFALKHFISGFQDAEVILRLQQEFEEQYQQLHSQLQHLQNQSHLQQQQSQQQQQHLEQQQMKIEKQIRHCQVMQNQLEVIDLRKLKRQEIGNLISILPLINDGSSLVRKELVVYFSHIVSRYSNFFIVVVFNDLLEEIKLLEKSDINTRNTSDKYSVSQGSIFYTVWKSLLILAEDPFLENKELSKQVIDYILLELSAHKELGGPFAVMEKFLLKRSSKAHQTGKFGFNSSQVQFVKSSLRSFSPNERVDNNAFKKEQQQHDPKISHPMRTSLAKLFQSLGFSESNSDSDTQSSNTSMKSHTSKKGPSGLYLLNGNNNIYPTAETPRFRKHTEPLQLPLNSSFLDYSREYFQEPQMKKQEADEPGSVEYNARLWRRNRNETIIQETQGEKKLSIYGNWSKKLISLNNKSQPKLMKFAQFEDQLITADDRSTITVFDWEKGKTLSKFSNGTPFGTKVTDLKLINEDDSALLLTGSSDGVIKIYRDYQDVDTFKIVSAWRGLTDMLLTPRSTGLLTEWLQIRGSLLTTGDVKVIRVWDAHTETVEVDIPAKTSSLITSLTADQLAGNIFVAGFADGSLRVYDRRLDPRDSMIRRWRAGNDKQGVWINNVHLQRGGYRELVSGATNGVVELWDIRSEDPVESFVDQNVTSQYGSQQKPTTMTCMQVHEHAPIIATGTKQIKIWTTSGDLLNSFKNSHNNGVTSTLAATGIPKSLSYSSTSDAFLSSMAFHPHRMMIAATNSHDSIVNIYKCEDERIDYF
UniProt P32600: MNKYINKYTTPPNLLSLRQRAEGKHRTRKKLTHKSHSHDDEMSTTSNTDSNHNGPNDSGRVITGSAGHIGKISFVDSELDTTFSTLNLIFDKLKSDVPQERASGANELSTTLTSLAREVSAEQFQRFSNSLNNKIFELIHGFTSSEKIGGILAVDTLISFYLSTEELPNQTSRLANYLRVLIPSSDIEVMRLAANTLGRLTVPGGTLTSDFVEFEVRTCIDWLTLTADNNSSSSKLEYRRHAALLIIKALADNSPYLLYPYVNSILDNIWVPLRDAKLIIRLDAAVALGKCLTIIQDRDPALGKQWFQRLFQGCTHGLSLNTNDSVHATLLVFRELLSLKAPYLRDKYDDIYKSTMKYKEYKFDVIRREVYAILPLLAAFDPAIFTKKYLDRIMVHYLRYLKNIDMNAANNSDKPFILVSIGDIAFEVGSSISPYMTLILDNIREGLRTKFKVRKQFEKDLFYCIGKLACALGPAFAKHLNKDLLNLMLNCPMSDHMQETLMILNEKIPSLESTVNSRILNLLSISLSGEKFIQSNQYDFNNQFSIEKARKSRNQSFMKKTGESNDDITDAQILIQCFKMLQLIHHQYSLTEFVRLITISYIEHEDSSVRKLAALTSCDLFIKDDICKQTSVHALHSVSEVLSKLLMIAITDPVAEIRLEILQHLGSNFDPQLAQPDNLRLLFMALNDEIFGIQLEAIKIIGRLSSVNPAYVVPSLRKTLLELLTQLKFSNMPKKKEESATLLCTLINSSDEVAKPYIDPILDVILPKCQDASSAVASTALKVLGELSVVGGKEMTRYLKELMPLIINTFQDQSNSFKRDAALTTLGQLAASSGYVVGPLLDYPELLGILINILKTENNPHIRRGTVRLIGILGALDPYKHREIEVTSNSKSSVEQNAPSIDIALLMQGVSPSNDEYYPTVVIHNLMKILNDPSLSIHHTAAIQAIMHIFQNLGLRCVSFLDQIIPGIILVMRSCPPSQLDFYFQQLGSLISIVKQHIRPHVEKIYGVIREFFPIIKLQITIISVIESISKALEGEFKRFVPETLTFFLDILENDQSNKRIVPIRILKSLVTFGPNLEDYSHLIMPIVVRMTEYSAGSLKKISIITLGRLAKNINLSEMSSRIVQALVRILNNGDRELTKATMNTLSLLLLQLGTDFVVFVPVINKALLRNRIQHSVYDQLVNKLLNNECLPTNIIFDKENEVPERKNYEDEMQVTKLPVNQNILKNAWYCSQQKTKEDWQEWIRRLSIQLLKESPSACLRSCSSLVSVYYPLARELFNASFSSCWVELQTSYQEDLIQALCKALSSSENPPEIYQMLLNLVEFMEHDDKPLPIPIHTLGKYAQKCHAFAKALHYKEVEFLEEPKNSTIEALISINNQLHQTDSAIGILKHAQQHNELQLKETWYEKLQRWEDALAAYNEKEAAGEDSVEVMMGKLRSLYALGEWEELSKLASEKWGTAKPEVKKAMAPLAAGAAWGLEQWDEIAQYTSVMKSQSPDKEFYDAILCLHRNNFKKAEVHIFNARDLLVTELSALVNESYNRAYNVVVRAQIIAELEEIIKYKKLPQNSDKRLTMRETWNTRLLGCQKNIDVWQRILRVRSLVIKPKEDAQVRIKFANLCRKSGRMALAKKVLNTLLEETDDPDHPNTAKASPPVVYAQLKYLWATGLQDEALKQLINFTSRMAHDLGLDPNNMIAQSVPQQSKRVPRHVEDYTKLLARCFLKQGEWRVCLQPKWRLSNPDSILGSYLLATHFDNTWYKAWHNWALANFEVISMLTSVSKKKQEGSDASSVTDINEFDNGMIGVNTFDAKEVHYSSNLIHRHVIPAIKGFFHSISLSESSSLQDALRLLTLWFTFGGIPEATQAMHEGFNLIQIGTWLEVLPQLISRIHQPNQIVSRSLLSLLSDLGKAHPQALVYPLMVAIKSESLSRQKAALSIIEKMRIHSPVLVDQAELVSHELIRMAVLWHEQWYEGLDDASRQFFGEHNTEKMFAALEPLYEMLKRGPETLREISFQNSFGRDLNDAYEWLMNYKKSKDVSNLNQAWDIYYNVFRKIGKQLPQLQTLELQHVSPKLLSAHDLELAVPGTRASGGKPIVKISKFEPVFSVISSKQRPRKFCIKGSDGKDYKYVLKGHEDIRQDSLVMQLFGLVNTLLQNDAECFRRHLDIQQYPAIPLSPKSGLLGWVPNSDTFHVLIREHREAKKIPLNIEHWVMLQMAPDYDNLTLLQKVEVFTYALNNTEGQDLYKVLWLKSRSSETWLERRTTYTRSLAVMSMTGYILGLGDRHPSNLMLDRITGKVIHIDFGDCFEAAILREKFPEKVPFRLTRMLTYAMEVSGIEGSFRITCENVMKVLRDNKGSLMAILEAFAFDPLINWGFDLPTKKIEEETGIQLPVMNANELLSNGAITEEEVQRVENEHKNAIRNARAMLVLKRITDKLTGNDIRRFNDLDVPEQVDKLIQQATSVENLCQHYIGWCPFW
UniProt P35169: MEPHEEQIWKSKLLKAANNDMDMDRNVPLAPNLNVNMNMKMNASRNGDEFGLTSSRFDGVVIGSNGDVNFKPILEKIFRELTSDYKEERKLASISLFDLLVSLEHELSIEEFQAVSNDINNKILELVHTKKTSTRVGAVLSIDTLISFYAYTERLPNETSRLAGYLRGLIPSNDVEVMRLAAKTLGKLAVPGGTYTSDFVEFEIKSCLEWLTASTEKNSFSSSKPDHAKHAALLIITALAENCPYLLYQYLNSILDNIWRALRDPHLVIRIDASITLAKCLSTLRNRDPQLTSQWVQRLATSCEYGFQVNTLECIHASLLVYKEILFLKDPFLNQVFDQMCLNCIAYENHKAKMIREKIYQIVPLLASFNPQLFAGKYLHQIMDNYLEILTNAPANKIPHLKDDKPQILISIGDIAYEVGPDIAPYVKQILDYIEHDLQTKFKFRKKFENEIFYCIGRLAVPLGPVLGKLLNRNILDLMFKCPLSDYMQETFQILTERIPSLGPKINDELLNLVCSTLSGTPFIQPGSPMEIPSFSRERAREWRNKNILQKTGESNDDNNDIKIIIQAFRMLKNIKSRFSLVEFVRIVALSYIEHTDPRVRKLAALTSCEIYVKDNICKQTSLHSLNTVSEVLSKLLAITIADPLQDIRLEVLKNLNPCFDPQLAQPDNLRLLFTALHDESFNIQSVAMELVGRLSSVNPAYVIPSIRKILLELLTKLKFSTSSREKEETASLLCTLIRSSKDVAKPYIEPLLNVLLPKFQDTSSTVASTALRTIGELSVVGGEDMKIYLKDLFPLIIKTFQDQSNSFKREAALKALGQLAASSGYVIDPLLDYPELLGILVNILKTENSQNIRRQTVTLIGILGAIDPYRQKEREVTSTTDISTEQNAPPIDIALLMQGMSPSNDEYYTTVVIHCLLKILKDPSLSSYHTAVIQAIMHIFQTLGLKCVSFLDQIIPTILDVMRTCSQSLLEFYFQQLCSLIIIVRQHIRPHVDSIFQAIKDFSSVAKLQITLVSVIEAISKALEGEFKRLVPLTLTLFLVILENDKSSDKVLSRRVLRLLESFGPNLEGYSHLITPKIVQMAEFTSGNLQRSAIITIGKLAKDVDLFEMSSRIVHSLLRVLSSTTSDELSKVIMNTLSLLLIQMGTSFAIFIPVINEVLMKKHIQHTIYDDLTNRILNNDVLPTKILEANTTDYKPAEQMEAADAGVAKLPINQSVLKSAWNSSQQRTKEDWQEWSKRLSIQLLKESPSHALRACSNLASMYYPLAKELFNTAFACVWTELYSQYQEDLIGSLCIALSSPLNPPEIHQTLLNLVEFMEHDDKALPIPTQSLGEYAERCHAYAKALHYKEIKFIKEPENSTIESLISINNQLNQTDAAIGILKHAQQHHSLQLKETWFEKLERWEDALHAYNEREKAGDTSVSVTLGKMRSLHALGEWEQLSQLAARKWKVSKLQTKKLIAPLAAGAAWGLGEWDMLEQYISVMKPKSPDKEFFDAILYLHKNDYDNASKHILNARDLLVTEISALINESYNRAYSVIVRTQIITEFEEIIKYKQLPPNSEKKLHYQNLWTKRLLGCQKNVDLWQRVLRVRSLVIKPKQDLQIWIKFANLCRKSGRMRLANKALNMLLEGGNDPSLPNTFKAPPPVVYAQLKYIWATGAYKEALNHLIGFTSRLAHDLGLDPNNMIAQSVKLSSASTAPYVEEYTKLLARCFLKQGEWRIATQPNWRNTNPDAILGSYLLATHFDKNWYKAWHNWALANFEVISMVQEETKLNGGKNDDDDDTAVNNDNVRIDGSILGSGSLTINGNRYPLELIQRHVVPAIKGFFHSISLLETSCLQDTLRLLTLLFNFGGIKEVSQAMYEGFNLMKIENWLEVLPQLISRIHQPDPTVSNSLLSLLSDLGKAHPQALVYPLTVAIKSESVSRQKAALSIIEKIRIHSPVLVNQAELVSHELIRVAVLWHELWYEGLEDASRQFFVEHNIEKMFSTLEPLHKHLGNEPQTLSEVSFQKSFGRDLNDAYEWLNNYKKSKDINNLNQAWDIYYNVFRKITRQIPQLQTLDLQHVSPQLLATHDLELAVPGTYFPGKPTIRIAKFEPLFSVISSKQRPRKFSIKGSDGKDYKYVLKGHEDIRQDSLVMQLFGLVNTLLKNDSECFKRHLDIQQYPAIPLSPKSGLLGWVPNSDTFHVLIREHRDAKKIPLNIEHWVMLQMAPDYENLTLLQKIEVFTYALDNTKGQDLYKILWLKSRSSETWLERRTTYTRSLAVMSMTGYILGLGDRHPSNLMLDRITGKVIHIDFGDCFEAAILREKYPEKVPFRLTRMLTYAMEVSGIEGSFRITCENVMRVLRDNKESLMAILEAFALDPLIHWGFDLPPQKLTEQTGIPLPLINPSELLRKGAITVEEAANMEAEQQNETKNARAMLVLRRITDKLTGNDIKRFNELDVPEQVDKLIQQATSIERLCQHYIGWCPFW

T1: TAP-Pib2 (S. cerevisiae) (UniProt P53191)
T1 sequence: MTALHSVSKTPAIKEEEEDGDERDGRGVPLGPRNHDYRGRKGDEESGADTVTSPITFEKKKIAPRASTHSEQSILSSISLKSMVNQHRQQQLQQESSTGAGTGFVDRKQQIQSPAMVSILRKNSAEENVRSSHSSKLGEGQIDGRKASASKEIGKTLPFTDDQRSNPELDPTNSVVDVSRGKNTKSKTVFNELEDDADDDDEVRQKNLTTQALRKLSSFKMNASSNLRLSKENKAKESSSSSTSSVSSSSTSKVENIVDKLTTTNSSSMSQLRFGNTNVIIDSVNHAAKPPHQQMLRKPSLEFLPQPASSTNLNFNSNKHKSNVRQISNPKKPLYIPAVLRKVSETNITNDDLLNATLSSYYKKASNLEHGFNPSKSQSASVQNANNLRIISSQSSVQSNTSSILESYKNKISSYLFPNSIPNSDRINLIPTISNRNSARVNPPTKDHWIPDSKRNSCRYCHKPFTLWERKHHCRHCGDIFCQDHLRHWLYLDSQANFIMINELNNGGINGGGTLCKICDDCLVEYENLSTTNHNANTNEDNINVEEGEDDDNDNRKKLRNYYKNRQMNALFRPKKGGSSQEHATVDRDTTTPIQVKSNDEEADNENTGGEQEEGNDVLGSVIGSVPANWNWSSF


Target: T1, TAP-Pib2 (S. cerevisiae)
Experiment: affinity purification with mass spectrometry; TAP-Pib2 immunoprecipitated with rabbit IgG on M270 epoxy Dynabeads from yeast lysate; Lysis150 buffer (50 mM Tris-HCl pH 8, 150 mM NaCl, 10% glycerol, 1 mM DTT, 0.2% Triton X-100), with or without 60 mM glutamine; LC-MS/MS

Row | Molecule | binding
1 | Kog1 (from UniProt P38873 1-1557) | binds
2 | Tor2 (from UniProt P32600 1-2474) | binds
3 | Tor1 (endogenous) (from UniProt P35169 1-2470) | binds
4 | Lst8 (protein, UniProt P41318 1-303) MSVILVSAGYDHTIRFWEALTGVCSRTIQHSDSQVNRLEITNDKKLLATAGHQNVRLYDIRTTNPNPVASFEGHRGNVTSVSFQQDNRWMVTSSEDGTIKVWDVRSPSIPRNYKHNAPVNEVVIHPNQGELISCDRDGNIRIWDLGENQCTHQLTPEDDTSLQSLSMASDGSMLAAANTKGNCYVWEMPNHTDASHLKPVTKFRAHSTYITRILLSSDVKHLATCSADHTARVWSIDDDFKLETTLDGHQRWVWDCAFSADSAYLVTASSDHYVRLWDLSTREIVRQYGGHHKGAVCVALNDV | binds
5 | Tco89 (protein, UniProt Q08921 1-799) MVHRGRTLKSDTDVTSLNASTVSHQSKPFRQFSTRSRAKSNASFKGLRRVLTHDGTLDNDYFNKHNVSQKCKSSDALFRKRTISGLNMTALTRVKSNQGKRSASFHSPVHNTLLSPKNSSHSNTGTAGFGLKPRRSKSTQSVLSLRDAQESKKSESTTDEEVECFSEDNIEDGKVNNDKVIAEHVMPEEKKNVQQLNQNELQSPDSIDEQEEDKSGTDGKENHRAVSLPLPHLSSNNYFGESSHSIEHQKDGETSPSSIETKLNATSVINEEGQSKVTKEADIDDLSSHSQNLRASLVKAGDNISEAPYDKEKKILDVGNTLAAHKSNQKPSHSDEQFDQEDHIDAPRSNSSRKSDSSFMSLRRQSSKQHKLLNEEEDLIKPDDISSAGTKDIEGHSLLENYAPNMILSQSTGVERRFENSSSIQNSLGNEIHDSGEHMASGDTFNELDDGKLRKSKKNGGRSQLGQNIPNSQSTFPTIANIGSKDNNVPQHNFSTSISSLTNNLRRAAPESFHGSRMNNIFHKKGNQNLLLRSNDLNKNSAAPASPLSNEHITSSTNSGSDANRQSNSGAKFNSFAQFLKSDGIDAESRTQRKLWLQRENSIMDLSSQNDGSDSIFMAGNIDAKREFERISHEYSNVKRFYNPLDEALLRVQPIITGNANNIRKKSHNDAQSIAHSSSDTDHKDEDDLLFTNYDKKFDDLYPHLASAKIQAVLSGIWKSESYLFNKDVNPINKNRTTSTNHSVGHTASQNARNLLRGPMGSSTTLHHQRVINSLQPTTRAVNRRMENVGYMHTQPQQR | binds

Results are given in words; binding and its absence hold for the method and conditions named. Binding seen in cells or lysates may run through a third protein. These calls come from enrichment with a bait or labelling near it, and not all partners need be listed.
